# Results are given in words; binding and its absence hold for the method and conditions named. Binding seen in cells or lysates may run through a third protein. A result given as binding can be weak or reduced; the word gives no strength. Sequences can lack the tags named with a protein.
# Molecular target: T1, Ldm1-GFP (Lipid Droplet Motility 1 / Yer085c, C-terminally GFP-tagged, TEF2 promoter) (S. cerevisiae) (UniProt P40058)
# T1 sequence: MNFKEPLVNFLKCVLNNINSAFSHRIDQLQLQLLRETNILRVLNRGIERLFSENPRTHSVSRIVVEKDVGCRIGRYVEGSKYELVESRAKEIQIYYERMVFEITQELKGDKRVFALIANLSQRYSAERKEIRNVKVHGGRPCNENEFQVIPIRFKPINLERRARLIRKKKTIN
# Assay: co-IP
substance,measurement,value
Pln1 (structural LD protein) (S. cerevisiae (endogenous in yeast)),binding,binds weakly
